Results are given in words; binding and its absence hold for the method and conditions named. In cells and extracts the contact can be indirect. Some results given as binding are weak or reduced against the parent protein; the word gives no strength. Where a sequence is shown, tags or fusion partners need not be part of it.
T1: FLAG-tagged GEF-H1 (Human pCMV6-Entry-GEF-H1), wild type (human) (UniProt Q92974)
T1 sequence: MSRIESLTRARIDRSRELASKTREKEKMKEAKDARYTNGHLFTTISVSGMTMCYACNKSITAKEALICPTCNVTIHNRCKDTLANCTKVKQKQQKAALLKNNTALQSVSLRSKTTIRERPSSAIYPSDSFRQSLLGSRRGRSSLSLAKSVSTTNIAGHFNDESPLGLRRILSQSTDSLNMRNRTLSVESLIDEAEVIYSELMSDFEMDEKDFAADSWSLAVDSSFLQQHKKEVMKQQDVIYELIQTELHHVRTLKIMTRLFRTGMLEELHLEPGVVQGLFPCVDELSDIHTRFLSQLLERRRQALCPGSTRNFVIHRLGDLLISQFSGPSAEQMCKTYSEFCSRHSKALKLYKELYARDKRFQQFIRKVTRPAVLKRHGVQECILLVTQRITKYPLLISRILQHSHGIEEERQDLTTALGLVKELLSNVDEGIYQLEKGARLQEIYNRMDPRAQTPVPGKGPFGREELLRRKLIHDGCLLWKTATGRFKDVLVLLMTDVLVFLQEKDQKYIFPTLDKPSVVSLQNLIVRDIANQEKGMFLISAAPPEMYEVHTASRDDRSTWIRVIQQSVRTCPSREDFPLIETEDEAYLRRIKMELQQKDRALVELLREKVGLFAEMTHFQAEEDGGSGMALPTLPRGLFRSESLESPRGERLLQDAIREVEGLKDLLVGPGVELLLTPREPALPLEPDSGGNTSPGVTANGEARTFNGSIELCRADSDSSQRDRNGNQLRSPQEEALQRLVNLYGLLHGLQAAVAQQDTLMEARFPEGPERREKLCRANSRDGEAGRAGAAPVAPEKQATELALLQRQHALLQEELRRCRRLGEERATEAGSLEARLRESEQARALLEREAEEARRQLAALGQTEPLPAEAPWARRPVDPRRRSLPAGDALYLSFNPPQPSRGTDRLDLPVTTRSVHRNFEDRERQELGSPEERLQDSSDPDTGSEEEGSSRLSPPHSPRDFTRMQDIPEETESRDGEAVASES

T2: GEF-H1 (Y394A) variant, exchange deficient (human) (UniProt Q92974)
T2 sequence: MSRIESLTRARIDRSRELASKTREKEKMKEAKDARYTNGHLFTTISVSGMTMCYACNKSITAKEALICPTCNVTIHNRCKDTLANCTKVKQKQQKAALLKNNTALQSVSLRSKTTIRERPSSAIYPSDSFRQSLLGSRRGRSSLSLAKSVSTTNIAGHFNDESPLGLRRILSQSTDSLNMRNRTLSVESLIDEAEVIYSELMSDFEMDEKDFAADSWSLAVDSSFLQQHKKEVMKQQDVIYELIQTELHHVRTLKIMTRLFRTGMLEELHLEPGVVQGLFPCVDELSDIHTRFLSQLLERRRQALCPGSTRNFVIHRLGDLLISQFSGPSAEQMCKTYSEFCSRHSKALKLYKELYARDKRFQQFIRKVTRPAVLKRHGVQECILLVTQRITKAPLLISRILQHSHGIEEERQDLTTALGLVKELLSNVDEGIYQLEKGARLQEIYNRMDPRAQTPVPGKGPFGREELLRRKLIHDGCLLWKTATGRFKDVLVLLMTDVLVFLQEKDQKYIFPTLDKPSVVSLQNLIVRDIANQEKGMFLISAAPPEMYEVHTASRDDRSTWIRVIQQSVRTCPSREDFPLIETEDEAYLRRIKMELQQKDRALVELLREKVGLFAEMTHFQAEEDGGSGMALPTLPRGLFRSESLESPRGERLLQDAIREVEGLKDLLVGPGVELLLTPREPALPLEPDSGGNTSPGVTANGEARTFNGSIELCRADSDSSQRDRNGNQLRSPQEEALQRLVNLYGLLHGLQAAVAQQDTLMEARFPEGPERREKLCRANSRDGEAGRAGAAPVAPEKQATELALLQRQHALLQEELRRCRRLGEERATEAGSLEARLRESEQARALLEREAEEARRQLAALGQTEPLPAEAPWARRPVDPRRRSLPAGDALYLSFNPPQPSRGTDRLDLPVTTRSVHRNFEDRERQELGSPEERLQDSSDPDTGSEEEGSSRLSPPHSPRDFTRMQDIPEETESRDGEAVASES


How the values were obtained:
[1] = molecular target: T1, FLAG-tagged GEF-H1 (Human pCMV6-Entry-GEF-H1), wild type (human); test: co-IP; HEK293T cells transfected with the indicated plasmids (GEF-H1 WT or variants with IRF5, IKKε, IKKβ; with or without RIPK2 or NOD2); precipitated with anti-GEF-H1, protein G agarose; lysis buffer 1% NP-40, 20 mM Tris-HCl pH 7.4, 150 mM NaCl; partners detected by western blot
[2] = molecular target: T2, GEF-H1 (Y394A) variant, exchange deficient (human); test: as above

| binding [1] | binding [2] | Binder |
| --- | --- | --- |
| binds | binds | human IKKβ (pcDNA3.1-huIKKβ-HA) (enzyme, UniProt O14920 1-756) MSWSPSLTTQTCGAWEMKERLGTGGFGNVIRWHNQETGEQIAIKQCRQELSPRNRERWCLEIQIMRRLTHPNVVAARDVPEGMQNLAPNDLPLLAMEYCQGGDLRKYLNQFENCCGLREGAILTLLSDIASALRYLHENRIIHRDLKPENIVLQQGEQRLIHKIIDLGYAKELDQGSLCTSFVGTLQYLAPELLEQQKYTVTVDYWSFGTLAFECITGFRPFLPNWQPVQWHSKVRQKSEVDIVVSEDLNGTVKFSSSLPYPNNLNSVLAERLEKWLQLMLMWHPRQRGTDPTYGPNGCFKALDDILNLKLVHILNMVTGTIHTYPVTEDESLQSLKARIQQDTGIPEEDQELLQEAGLALIPDKPATQCISDGKLNEGHTLDMDLVFLFDNSKITYETQISPRPQPESVSCILQEPKRNLAFFQLRKVWGQVWHSIQTLKEDCNRLQQGQRAAMMNLLRNNSCLSKMKNSMASMSQQLKAKLDFFKTSIQIDLEKYSEQTEFGITSDKLLLAWREMEQAVELCGRENEVKLLVERMMALQTDIVDLQRSPMGRKQGGTLDDLEEQARELYRRLREKPRDQRTEGDSQEMVRLLLQAIQSFEKKVRVIYTQLSKTVVCKQKALELLPKVEEVVSLMNEDEKTVVRLQEKRQKELWNLLKIACSKVRGPVSGSPDSMNASRLSQPGQLMSQPSTASNSLPEPAKKSEELVAEAHNLCTLLENAIQDTVREQDQSFTALDWSWLQTEEEEHSCLEQAS |
| binds | binds | human IKKε (pcDNA3-huIKKε-flag) (enzyme, UniProt Q14164 1-716) MQSTANYLWHTDDLLGQGATASVYKARNKKSGELVAVKVFNTTSYLRPREVQVREFEVLRKLNHQNIVKLFAVEETGGSRQKVLVMEYCSSGSLLSVLESPENAFGLPEDEFLVVLRCVVAGMNHLRENGIVHRDIKPGNIMRLVGEEGQSIYKLTDFGAARELDDDEKFVSVYGTEEYLHPDMYERAVLRKPQQKAFGVTVDLWSIGVTLYHAATGSLPFIPFGGPRRNKEIMYRITTEKPAGAIAGAQRRENGPLEWSYTLPITCQLSLGLQSQLVPILANILEVEQAKCWGFDQFFAETSDILQRVVVHVFSLSQAVLHHIYIHAHNTIAIFQEAVHKQTSVAPRHQEYLFEGHLCVLEPSVSAQHIAHTTASSPLTLFSTAIPKGLAFRDPALDVPKFVPKVDLQADYNTAKGVLGAGYQALRLARALLDGQELMFRGLHWVMEVLQATCRRTLEVARTSLLYLSSSLGTERFSSVAGTPEIQELKAAAELRSRLRTLAEVLSRCSQNITETQESLSSLNRELVKSRDQVHEDRSIQQIQCCLDKMNFIYKQFKKSRMRPGLGYNEEQIHKLDKVNFSHLAKRLLQVFQEECVQKYQASLVTHGKRMRVVHETRNHLRLVGCSVAACNTEAQGVQESLSKLLEELSHQLLQDRAKGAQASPPPIAPYPSPTRKDLLLHMQELCEGMKLLASDLLDNNRIIERLNRVPAPPDV |

From PMC6430831
